The values that follow come from the supplement of paper PMC4604168 (melanoma cell lines).

Structures are written as SMILES. Some of the results follow. Repeats are few or missing, and single values can be far off.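 Cells were imaged in 1,536-well plates, and nuclei stained with an antibody against cleaved PARP were counted against all DNA-stained nuclei to give the apoptosis fraction. Screening doses were chosen to leave most cells alive, and resting and induced cleaved-PARP levels differ strongly between cell lines.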

The test relates to COLO829. Kind of test: cleaved PARP positive nuclei fraction relative to DMSO control; melanoma cells; higher = more apoptosis. To be noted: library dose: low library concentration; 72 h.
Regarding `COc1ccc2c(c1)CCC1C2CCC2(C)C(NCCCCCCN3C(=O)C=CC3=O)CCC12` (stereo not drawn) + c1cc(-c2cnn3cc(-c4ccc(OCCN5CCCCC5)cc4)cnc23)ccn1 [Dorsomorphin] (first compound 0.4 µM, partner dose 0.4 µM), the “cleaved PARP positive nuclei fraction” value was 138%. As to `NCC(=O)Nc1ccc(-n2nc(C(F)(F)F)cc2-c2ccc3c(ccc4ccccc43)c2)cc1` + COc1ccc(COc2ccc(Cc3cnc(N)nc3N)cc2OC)cc1 [GW2580] (first compound 1 µM, partner dose 1 µM), the “cleaved PARP positive nuclei fraction” value is 109%. Take `COc1cc2ncnc(Nc3ccc(Oc4ccccc4)cc3)c2cc1OC` + COc1cc(N2CCC(N3CCN(C)CC3)CC2)ccc1Nc1ncc(Cl)c(Nc2ccccc2S(=O)(=O)C(C)C)n1 [NVP-TAE684] (first compound 2 µM, partner dose 0.08 µM): the “cleaved PARP positive nuclei fraction” value came out at 51.7%.
